# PubChem BioAssay AID2417 (National Center for Advancing Translational Sciences (NCATS), 2010)
# The campaign covered roughly 140,000 compounds. About 4,300 (3.1%) were called active. The inconclusive results got no clear call from the source; some entries with a clear call stand among them for comparison.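 How the source made its calls: active means readout at or below -70, meaning at least 70% loss of cells showing the perinucleolar compartment, a nuclear body marking cancer cells; inconclusive means readout between -30 and a set limit; inactive means the rest.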
# Test: High Content Assay for Compounds that inhibit the Assembly of the Perinucleolar Compartment;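 further: plate controls were DMSO wells for no effect and camptothecin positive control wells for full effect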
# Conditions: PC3M PTB-GFP, PNC prevalence imaging, 16 h; at 10 µM; stronger effect = lower value
# Summary of the method: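 PC3M cells stably expressing PTB-GFP, 750–1000 cells/well, treated 16 h at 37 °C with compound (23 nl of library stock), in duplicate. After paraformaldehyde fixation and Hoechst stain, imaged at 20x; PNC prevalence scored by image analysis.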
row,SMILES,"activity change (PNC), negative = inhibition"
1,COC(=O)CSc1nnc(-c2cccnc2)o1,inconclusive: -73.3%
2,Cc1nc2c(c(C)nn2-c2ccccc2)c(C)c1Cl,inconclusive: -75.9%
3,COc1cc(/C=N/NC(N)=O)c(Br)cc1OCC(=O)Nc1ccccc1C,inactive: -4.08%
4,Cc1cc(C)n2c(-c3ccccc3Cl)nnc2n1,active: -109%
5,COc1cc(S(=O)(=O)N2CCN(Cc3ccccc3)CC2)ccc1Br,inconclusive: -38.3%
6,COCCNC(=O)C(=O)NCC1OCCCN1S(=O)(=O)c1cccs1 (configuration not stated),inactive: 3.31%
7,C=C(c1cccc2ccccc12)P(=O)(O)O,inconclusive: -62.2%
8,O=C(CSc1nnc2scc(-c3ccccc3)n12)NCc1ccc2c(c1)OCO2,inactive: 5.01%
9,CCOc1cccc(C(=O)Nc2ccc(N3CCN(S(C)(=O)=O)CC3)cc2)c1,inactive: -5.19%
10,COc1ccccc1N1CCN(C(c2ccc(N(C)C)cc2)c2nnnn2CCc2ccccc2)CC1 (configuration not stated),inactive: 5.81%
11,O=C(O)C1CCN(C(=O)c2ccccc2Cl)CC1,inconclusive: -40%
12,Cc1cc(C)c(OCC(=O)Nc2cccc(NC(=O)c3ccco3)c2)c(Br)c1,inconclusive: -49%
13,COC(/C=C/Nc1ccc(Br)cc1)=C(C#N)C#N,inconclusive: -37%
14,CCC(CC)c1nnc(NC(=O)c2ccc([N+](=O)[O-])cc2)s1,inconclusive: -32.7%
15,N#C/C(=C(/O)CN1CCOCC1)c1nc(-c2ccccc2)cs1,inactive: 27.8%
16,CCCCn1nnnc1SCC(=O)N(CC)CC,inconclusive: -35.9%
17,CCOc1ccc(Nc2nc(Cc3nnc(SCC(=O)NC4CCCCC4)n3C)cs2)cc1,inconclusive: -47%
18,CN1CCN(C(=O)NC2CCCN2S(=O)(=O)c2ccc(Cl)cc2)CC1 (configuration not stated),inconclusive: -63.9%
19,CCCCCCn1c(=O)c(F)cn(Cc2ccc(OC)c([N+](=O)[O-])c2)c1=O,inconclusive: -72.6%
20,Cc1cc(=O)[nH]c(SCC(=O)/C=C2\N(C)c3ccccc3C2(C)C)n1,inactive: 25.3%
21,Cn1c(CC(=O)Nc2ccccc2)c(Sc2ccccc2)c2ccccc21,inconclusive: -37%
22,CCOc1ccc(-c2nc(-c3cccnc3)no2)cc1,active: -100%
23,Cc1ccccc1NC(NC(=O)OCCn1c([N+](=O)[O-])cnc1C)C(Cl)(Cl)Cl (configuration not stated),inactive: 24.2%

row,SMILES,"activity change (PNC), negative = inhibition"
1,O=C(NC1CCCCCCC1)c1cnccn1,inconclusive: -44%
2,CC(=O)N(C(C)=O)c1c(C#N)c(C)n(-c2ccccc2)c1C(=O)c1ccccc1,active: -92.5%
3,COc1ccc(/C(C)=N/NC(=O)c2ccc(CSc3cccc4cccnc34)cc2)cc1OC,inactive: -8.41%
4,C/C(=C\c1ccco1)C1C(C#N)=C(N)Oc2n[nH]c(-c3ccccc3)c21 (configuration not stated),inconclusive: -44.8%
5,CCC/S(CC1CC1(Cl)Cl)=N\S(=O)(=O)c1ccc(C)cc1 (configuration not stated),inconclusive: -39.9%
6,CCN(CC)S(=O)(=O)c1ccc(-c2nnc(SCC(=O)Nc3nc(C)cs3)o2)cc1,active: -106%
7,CCCC1Cc2c(sc3nc(SC)nc(N)c23)CO1 (configuration not stated),inconclusive: -48.4%
8,Cc1ccc(S(=O)(=O)NCC(=O)N2CCN(c3ccccn3)CC2)cc1,inactive: -10%
9,COc1ccccc1Nc1nc(C2(C)CCC(=O)O2)cs1 (configuration not stated),inactive: -26.8%
10,COC(=O)C1=CN(c2cccc(C)c2)C=C(C(=O)OC)C1c1cc(OC)c(O)c([N+](=O)[O-])c1,inconclusive: -39.8%
11,N#Cc1ccccc1Cn1cc(C#N)c2ccccc21,inconclusive: -45.2%
12,CN(C)C(=O)N1CCN(C(=O)c2ccccc2Sc2ccccc2C#N)CC1,inconclusive: -79.5%
13,CCOc1ccc(C2C(C#N)=C(N)N(c3sc4c(c3C#N)CCCC4)C3=C2C(=O)CCC3)cc1 (configuration not stated),inactive: -9.52%
14,CC(Oc1ccccc1)C(=O)Nc1oc(-c2ccco2)c(-c2ccco2)c1C#N (configuration not stated),inconclusive: -61.8%
15,COC(=O)c1sc(NC(=O)COc2cccc(C)c2)nc1C,inconclusive: -54.8%
16,Cn1nc(-c2ccc(Cl)cc2)c2cc(C(=O)NC3CC3)sc21,active: -86%
17,O=C(Nc1ccc(CN2CCOCC2)cc1)c1cc2ccccc2o1,inconclusive: -43.4%
18,Cc1cccc(OCCCCCn2ccnc2)c1C,inactive: 49.2%
19,O=C(/C=C/c1ccccc1)NC(NC(=S)Nc1ccc(Cl)cc1)C(Cl)(Cl)Cl (configuration not stated),inconclusive: -57%
20,CCOC(=O)/C(=N\Nc1ccc(OC)cc1)c1csc(Nc2ccccc2)n1,inconclusive: -48.6%
21,O=S(=O)(Cc1cc(-c2ccc(Cl)cc2)no1)c1ccccc1,inconclusive: -43.4%
22,Cn1nnnc1SCCNCc1ccc(Cl)cc1,inconclusive: -35%
23,O=C(CSC1CCCCC1)N1CCN(c2ccccc2)CC1,inconclusive: -32.6%

row,SMILES,"activity change (PNC), negative = inhibition"
1,CCOC(=O)c1c(NC(=O)C2=C(C)NC(=S)NC2c2ccc(F)cc2F)sc(C)c1C (configuration not stated),inconclusive: -30.4%
2,COC(=O)\C(C(C)=O)=C(/C=C/C=C/C=C/N(C)C)N(C)C,inactive: 38.2%
3,CCN(CC)c1ccc(C(=O)OCC(=O)Nc2ccccc2-c2ccccc2)cc1,inconclusive: -37.9%
4,CCOCc1nnc(NC(=O)CSCc2ccccc2)s1,inactive: -18.2%
5,O=C1C(Cl)=C(N2CCN(Cc3ccccc3)CC2)C(=O)N1c1ccccc1,inconclusive: -58.4%
6,CCOC(=O)c1c(NC(=O)c2cc(-c3ccc(Cl)s3)nc3ccccc23)sc(C(N)=O)c1C,inactive: -21%
7,CC12CCCCN1CCCc1c2[nH]c2ccccc12 (configuration not stated),inconclusive: -46.6%
8,COc1cccc(N2C(=O)CC(c3c[nH]c4ccccc34)C2=O)c1 (configuration not stated),inconclusive: -42%
9,O=C(NNc1cc(N2CCOCC2)nc(N2CCOCC2)n1)c1ccc(Cl)cc1Cl,inactive: -25.9%
10,Cc1nc2cc(-c3ccccc3)nn2c(C)c1CCC(=O)N1CCN(c2ccccn2)CC1,inconclusive: -36.2%
11,O=C1CSc2nc3ccccc3n21,inactive: 44.9%
12,CCOC(=O)c1cnc(SC2CCc3ccccc3C2=O)nc1N (configuration not stated),inactive: -23.5%
13,CC(=O)OCC1CCCC2=C(C)C(=O)CCC21COC(C)=O (configuration not stated),active: -109%
14,Cc1ccc(NS(=O)(=O)c2cc(OCC(N)=O)c(C)cc2Cl)cc1C,inconclusive: -49.9%
15,CC1CCc2cc(F)ccc2N1S(=O)(=O)c1ccc(Cl)nc1 (configuration not stated),inconclusive: -40.3%
16,Cc1nc(C)c(C(=O)N/N=C/c2c[nH]c3ccccc23)s1,active: -87%
17,Cc1ccn(C(=O)c2ccc(NC(=O)C3CCCCC3)cc2)n1,inconclusive: -52.3%
18,CC(C)Cn1c(SCC(=O)c2ccc(Cl)s2)nnc1-c1ccco1,inconclusive: -36%
19,O=C(c1ccco1)[C@@H]1[C@@H]2C(=O)N(c3ccc(Br)cc3)C(=O)[C@@H]2C2c3ccccc3C=CN21 (some centres not stated),inactive: 37.6%
20,CCC(C)NCC(O)COCc1ccc(Cl)cc1 (configuration not stated),inconclusive: -44.3%
21,CC(C)(C)OC(=O)NCCc1nnc(S(=O)(=O)Cc2ccc(Cl)cc2Cl)o1,inactive: -4.46%
22,Cc1cc[n+](-c2[nH]c(=O)sc2/C=N/NC([S-])=Nc2ccccc2)cc1C,inconclusive: -32.3%
23,COc1ccc(CCNC(=O)CSc2nncs2)cc1,inconclusive: -38.8%

# Of the compounds above, 7 contain a thiophene ring, fused or not:
row,SMILES,"activity change (PNC), negative = inhibition"
6,COCCNC(=O)C(=O)NCC1OCCCN1S(=O)(=O)c1cccs1 (configuration not stated),inactive: 3.31%
7,CCCC1Cc2c(sc3nc(SC)nc(N)c23)CO1 (configuration not stated),inconclusive: -48.4%
13,CCOc1ccc(C2C(C#N)=C(N)N(c3sc4c(c3C#N)CCCC4)C3=C2C(=O)CCC3)cc1 (configuration not stated),inactive: -9.52%
16,Cn1nc(-c2ccc(Cl)cc2)c2cc(C(=O)NC3CC3)sc21,active: -86%
1,CCOC(=O)c1c(NC(=O)C2=C(C)NC(=S)NC2c2ccc(F)cc2F)sc(C)c1C (configuration not stated),inconclusive: -30.4%
6,CCOC(=O)c1c(NC(=O)c2cc(-c3ccc(Cl)s3)nc3ccccc23)sc(C(N)=O)c1C,inactive: -21%
18,CC(C)Cn1c(SCC(=O)c2ccc(Cl)s2)nnc1-c1ccco1,inconclusive: -36%

# (list continues)

row,SMILES,"activity change (PNC), negative = inhibition"
1,C1CCC2=NCCCN2CC1,inconclusive: -50.1%
2,CC(C)c1nc2sc3c(c2c(=O)o1)CCCC3,active: -94.2%
3,C=CCSc1nnnn1-c1ccc(OC)cc1,inactive: 10.4%
4,CCN(CC)c1ccc(NC(=O)COC(=O)c2cccs2)cc1,inactive: -27.1%
5,O=C(/C=C(/c1ccc(Cl)cc1)n1cncn1)c1ccccc1,inactive: -29.8%
6,Cc1ccc(-n2c(SCC(=O)OC(C)C)nnc2-c2ccco2)cc1,inconclusive: -62.8%
7,Cc1oc2nc(SCCCC(=O)NCCCO)nc(N)c2c1C,inconclusive: -34.6%
8,COc1cc(S(=O)(=O)Nc2ccccc2)ccc1N=Cc1c(C)[nH]n(-c2ccc(C)cc2)c1=O,inconclusive: -44.3%
9,CCCCC(=O)Nc1ccc(NC(=O)c2ccc3c(c2)OCO3)cc1OC,inconclusive: -44.8%
10,O=C(COC(=O)Cc1ccccc1[N+](=O)[O-])NCc1ccccc1Cl,inactive: -2.3%
11,O=C1/C(=C/c2ccc(O)cc2)SC(=S)N1Cc1cccnc1,inconclusive: -70.3%
12,COc1ccc(Cc2nnc(NC(=O)c3cccc([N+](=O)[O-])c3)s2)cc1,inactive: 27.8%
13,C=CCn1c(C)cc(C(=O)COc2nncc3ccccc23)c1C,inconclusive: -32.3%
14,CC(NC(=O)CSc1nc(=O)cc(N)n1-c1ccccc1)c1ccccc1 (configuration not stated),inconclusive: -43.5%
15,O=C1c2ccccc2C2=Nc3ccccc3SC(c3ccc(Cl)cc3)C12 (configuration not stated),inconclusive: -42.4%
16,CCC(=O)NC(=S)Nc1ccccc1C(=O)NC1CCCCC1,inactive: 27.1%
17,O=C(CSc1nnc(Cc2ccccc2)o1)Nc1ccc2c(c1)OCO2,inconclusive: -59.1%
18,CSc1ccc(S(=O)(=O)NCCSC(C)(C)C)cc1,inactive: -13.9%
19,O=C(c1ccccc1Cl)N1CCC(c2nc3c(nnn3Cc3ccco3)c(=O)[nH]2)CC1,inactive: 3.81%
20,COc1ccc(S(=O)(=O)N[C@@H](Cc2ccccc2)C(=O)N2CC[C@@]3(O)CCCC[C@H]3C2)cc1,active: -87.7%
21,CN1CCN(CCOc2ccc(Cl)c(Cl)c2)CC1,inconclusive: -72.1%
22,O=c1c2ccccc2nnn1CSc1ccccc1,inconclusive: -37.9%
23,O=S(=O)(Nc1ccc(S(=O)(=O)Nc2nccs2)cc1)c1ccc2c(c1)OCCO2,inactive: 1.59%
